# Measured values taken from PubChem BioAssay AID2685 (National Center for Advancing Translational Sciences (NCATS), 2010).
# The list shows a part of the results. Shown are side measurements of this screen, not its main read-out; they come without a call. Compounds called inactive in the main read-out are mostly missing here. Potencies come from curve fits of mixed quality, noted in brackets.
# Assay: qHTS Assay for Lipid Storage Modulators in Drosophila S3 Cells;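 as to cell number change: cells counted by Cell Tracker Red CMTPX staining in the red channel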
# Conditions: BODIPY lipid droplet fluorescence, 18-24 h; for cell number change: measured here: cell count max response, cells fed with added oleic acid
# Summary of the method: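 Laser-scanning cytometry quantifies lipid droplet accumulation (500–530 nm total intensity; droplet/cell object ratio) in oleic acid-fed (400 uM added) Drosophila S3 cells treated with a concentration series. 20 uM Triacsin C defined 100% inhibition.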
# [1] = measured here: cell number channel AC50, cells fed with added oleic acid
# [2] = measured here: lipid fluorescence (Fed channel) AC50, cells fed with added oleic acid
Structure (SMILES),cell number change [%],AC50 [1],AC50 [2]
Cn1c(-c2ccccc2)cnc1NCc1ccc(F)cc1,-17.9,–,–
c1cc(CN2CCN(C3CCCCCC3)CC2)ccn1,65.2,"23.1 µM [rising, single point]",–
Cc1cc2ccccn2c1C(=O)c1cccc([N+](=O)[O-])c1,48.9,"0.461 µM [rising, full curve, poor fit]","0.461 µM [rising, full curve, poor fit]"
Cc1ccc(S(=O)(=O)N2CCOCC2)cc1NS(=O)(=O)c1ccc(F)c(F)c1,7.76,–,"0.082 µM [rising, full curve, poor fit]"
COc1ccc(CN2C(=O)C(O)(CC(=O)c3ccc4c(c3)OCO4)c3ccccc32)cc1OC (stereo unspecified),–,"0.0651 µM [rising, full curve, poor fit]",–
CCN(CC)S(=O)(=O)c1ccc(N2CCN(S(=O)(=O)c3ccccc3)CC2)nc1,26.2,–,–
Cn1c(SCc2ccon2)nc2ccccc2c1=O,-11.4,–,"5.17 µM [rising, full curve]"
CCOC(=O)CSc1nc(=O)n2cccc(C)c2n1,12.8,"6.51 µM [rising, single point]",–
CN1CCN(C(=O)c2ccc3c(c2)S(=O)(=O)c2ccccc2C3=O)CC1,–,"0.517 µM [rising, full curve]","1.16 µM [rising, partial curve]"
c1ccc2c(CSc3nnc(-c4ccncc4)o3)cccc2c1,106,–,"1.46 µM [falling, partial curve]"
CCOc1ccccc1NC(=O)c1ccc(Cl)c(NC(=O)CC(c2ccccc2)c2ccccc2)c1,-24.7,–,"29.1 µM [falling, single point]"
COc1ccc(CC(=O)Nc2cccc(-c3cn4ccccc4n3)c2)cc1,-1.93,"0.146 µM [falling, full curve, poor fit]","1.84 µM [rising, partial curve]"
CC1CCN(C(=O)CSc2nc3c(c(=O)n2C)SC(C)C3)CC1 (stereo unspecified),12,–,"0.731 µM [falling, partial curve, poor fit]"
CN(C(=O)COC(=O)CSc1cc(Cl)ccc1Cl)c1c(N)n(Cc2ccccc2)c(=O)[nH]c1=O,–,"6.51 µM [falling, single point]","0.0058 µM [falling, full curve, poor fit]"
Cc1sc2ncnc(N(C)Cc3ccco3)c2c1C,37.5,"1.84 µM [rising, full curve]","29.1 µM [rising, single point]"
COc1cc(OC)c(OC)cc1/C=C1\CCC/C(=C\c2cc(OC)c(OC)cc2OC)C1=O,-19.4,–,"6.51 µM [rising, single point]"
O=C(NCc1cccc(Cl)c1)C1=CC=CN2CCS(=O)(=O)N=C12,-31.4,"14.6 µM [falling, partial curve, poor fit]","0.82 µM [falling, full curve, poor fit]"
COc1ccc(NC(=O)CN2CCN(c3c(C)cc(C)cc3C)CC2)cc1,13.8,–,–
COc1ccc(NC(=O)c2ccc3c(c2)OCO3)cc1,-6.04,–,"6.51 µM [rising, single point]"

# Four successive records already listed, for reference:
Structure (SMILES),cell number change [%],AC50 [1],AC50 [2]
Cc1ccc(S(=O)(=O)N2CCOCC2)cc1NS(=O)(=O)c1ccc(F)c(F)c1,7.76,–,"0.082 µM [rising, full curve, poor fit]"
COc1ccc(CN2C(=O)C(O)(CC(=O)c3ccc4c(c3)OCO4)c3ccccc32)cc1OC (stereo unspecified),–,"0.0651 µM [rising, full curve, poor fit]",–
CCN(CC)S(=O)(=O)c1ccc(N2CCN(S(=O)(=O)c3ccccc3)CC2)nc1,26.2,–,–
Cn1c(SCc2ccon2)nc2ccccc2c1=O,-11.4,–,"5.17 µM [rising, full curve]"

# (list continues)

Structure (SMILES),cell number change [%],AC50 [1],AC50 [2]
O=C(NCCCn1ccnc1)C(=O)NCC(c1cccnc1)N1CCN(c2ccc(F)cc2)CC1 (stereo unspecified),-5.2,–,"23.1 µM [rising, single point]"
COc1cc(C2Oc3ccccc3C=C2[N+](=O)[O-])cc(OC)c1OC (stereo unspecified),-52.6,"18.4 µM [falling, partial curve]","20.6 µM [falling, partial curve]"
Cc1cc(Cl)ccc1OCc1n[nH]c(=S)n1C1CCCCC1,-84.1,"29.1 µM [falling, single point]","0.13 µM [rising, full curve, poor fit]"
Cc1ccc(OCC(=O)N(Cc2cccc(Cl)c2)C2CCS(=O)(=O)C2)cc1C (stereo unspecified),0.989,–,–
CCn1c(SCC(=O)N2c3ccccc3CCc3ccccc32)nnc1-c1ccc(OC)cc1,-4.68,–,"18.4 µM [falling, single point]"
CSc1nc2nc3c(c(=O)n2[nH]1)CCCC3,-26.2,"0.291 µM [falling, full curve]","18.4 µM [falling, partial curve]"
Cc1cc(C)c(S(=O)(=O)Nc2ccc3c(c2)CCC3)c(C)c1,-92.9,"16.4 µM [falling, partial curve]",–
O=C(c1cc(COc2ccc(F)cc2Cl)on1)N1CCN(C2CCCCC2)C(=O)C1,-25.8,"0.291 µM [falling, full curve, poor fit]","0.58 µM [rising, single point]"
COc1ccc(C(=O)/C=C/c2ccc(OC3CSC3)cc2)cc1OC,-2.79,–,"0.13 µM [falling, partial curve, poor fit]"
N#CCCN(C(=O)CSc1nc(-c2ccccc2)cn1N)c1ccc(F)cc1,65.1,"0.0058 µM [rising, full curve, poor fit]",–
Cc1ccc(Nc2ccc(C(N)=O)cc2[N+](=O)[O-])cc1,-31.3,"0.651 µM [falling, full curve]","23.1 µM [falling, partial curve]"
COc1ccccc1C(=O)NC(=O)COC(=O)CCOc1ccc(C)cc1,2.37,–,"3.26 µM [falling, single point]"
N=c1c2ccccc2nnn1-c1ccc(C(F)(F)F)cc1,6.18,"0.58 µM [rising, full curve, poor fit]",–
COc1cc(OC)c(OC)cc1/C=N/NC(=O)C[n+]1ccccc1,-65.5,"29.1 µM [falling, single point]","1.84 µM [falling, partial curve]"
CC(NS(=O)(=O)c1ccc(Cl)cc1)C(=O)OCC(=O)Nc1ccc(N(C)C)cc1 (stereo unspecified),-22.8,–,"29.1 µM [rising, single point]"
Cc1sc2nc(C3CC3)nc(SCC(=O)N3CCCc4ccccc43)c2c1C,11.6,–,"16.4 µM [rising, single point]"
c1ccc(-c2nnsc2-c2ncc[nH]2)cc1,–,–,"1.64 µM [rising, single point]"
O=C(CN1C2=NCCCN2c2ccccc21)c1cccc(Br)c1,16.7,–,"7.31 µM [rising, partial curve]"
O=C(C1CCN(S(=O)(=O)c2cccnc2)CC1)N1CCN(c2cccc(Cl)c2)CC1,17.5,–,"0.411 µM [rising, single point]"

Structure (SMILES),cell number change [%],AC50 [1],AC50 [2]
CCN(CC)S(=O)(=O)c1ccc(NC(=O)CSc2nnc(-c3cccc(OC)c3)n2C)cc1,-26.6,"4.61 µM [falling, full curve, poor fit]","3.66 µM [falling, full curve]"
CC(=O)c1cc2c(cc1NS(=O)(=O)c1ccccc1Br)OCO2,-8.26,–,–
O=c1[nH]c(CSc2ncc(C(F)(F)F)cc2Cl)nc2cc(C(F)(F)F)ccc12,20.9,–,"29.1 µM [rising, single point]"
CC(C)(C)OC(=O)NCCCCCc1cn(CC(=O)NCCCCCCCCCCC(=O)N2CCN(C(=O)OC(C)(C)C)CC2)nn1,-20.2,–,"5.8 µM [falling, partial curve]"
Cn1nc(C(F)(F)F)c2cc(C(=O)O)sc21,-3.51,"0.82 µM [falling, full curve]",–
COc1cccc(C(=O)Nc2ccc(N3CCCC3)cc2)c1,9.28,–,–
Cc1ccc(NS(=O)(=O)c2ccc(C(=O)OCC(=O)N3CCCCC3)cc2)cc1,6.88,–,"10.3 µM [falling, partial curve]"
CCOC(=O)c1c(NC(=O)c2ccno2)c2cc([N+](=O)[O-])ccc2n1C,-18.6,–,"29.1 µM [rising, single point]"
C=CCn1c(-c2cccc(Cl)c2)n[nH]c1=S,14.9,–,"4.11 µM [rising, full curve]"
CC(C)n1cnnc1SCC(=O)Nc1ccc(Br)cc1F,–,–,"7.31 µM [rising, partial curve]"
CCCn1c(SCC(=O)Nc2nnc(-c3ccccc3)s2)nnc1-c1ccccn1,-98.1,–,–
CCC(=O)Nc1nc2ccc(NC(=O)COc3ccccc3)cc2s1,8.41,–,"0.00461 µM [rising, full curve, poor fit]"
COc1cc(-c2cc(C(=O)Nc3ccc(S(=O)(=O)Nc4ncccn4)cc3)c3ccccc3n2)cc(OC)c1OC,-13.5,–,"0.0517 µM [falling, full curve, poor fit]"
Cc1ccc2c(c1)N(C(=O)CCC(=O)Nc1ccccc1Br)CC(C)O2 (stereo unspecified),5.19,–,"4.61 µM [rising, single point]"
Cc1ccc(CNC(=O)C2C3C=CC4(CN(Cc5cccnc5)C(=O)C24)O3)cc1 (stereo unspecified),11.1,–,"18.4 µM [rising, single point]"
COCCOC(=O)C1=C(C)NC(=O)NC1c1ccc(Cl)cc1 (stereo unspecified),-1.99,–,"0.146 µM [rising, full curve, poor fit]"
Cc1[nH]c2c(Cl)cccc2c1CCNC(=O)C1CCCCC1C(=O)OCC(F)(F)F (stereo unspecified),13.4,–,"3.66 µM [rising, full curve, poor fit]"
Cc1ccc(NS(=O)(=O)c2cc(C(=O)N3CCc4ccccc4C3)ccc2Cl)cc1,145,–,"23.1 µM [rising, single point]"
Cc1nc(C)c(-c2csc(Nc3ncccc3C)n2)s1,-36,"20.6 µM [falling, single point]","0.651 µM [rising, full curve]"
